The supplement of paper PMC10849652
The other results are listed elsewhere or left out.

Protein sequences, listed by entry. Tags and fused reporters are not part of them. Lines headed by an entry give the natural chain unless they say otherwise; changes in a name come on top.
UniProt Q96HA4: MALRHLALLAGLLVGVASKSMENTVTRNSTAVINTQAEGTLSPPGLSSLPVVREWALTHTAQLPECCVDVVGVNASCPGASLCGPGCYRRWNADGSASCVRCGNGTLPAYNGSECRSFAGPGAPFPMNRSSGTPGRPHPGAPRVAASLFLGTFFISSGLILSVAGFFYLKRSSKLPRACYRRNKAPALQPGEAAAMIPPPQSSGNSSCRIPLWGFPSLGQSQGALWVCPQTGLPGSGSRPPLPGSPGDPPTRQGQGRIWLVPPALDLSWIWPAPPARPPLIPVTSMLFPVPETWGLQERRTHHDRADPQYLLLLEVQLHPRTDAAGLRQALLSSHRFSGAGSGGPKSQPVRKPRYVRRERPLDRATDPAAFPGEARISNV
UniProt Q9BUW7: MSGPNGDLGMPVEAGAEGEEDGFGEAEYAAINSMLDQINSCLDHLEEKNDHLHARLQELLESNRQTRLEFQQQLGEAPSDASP
UniProt P01031, whole entry, looked up: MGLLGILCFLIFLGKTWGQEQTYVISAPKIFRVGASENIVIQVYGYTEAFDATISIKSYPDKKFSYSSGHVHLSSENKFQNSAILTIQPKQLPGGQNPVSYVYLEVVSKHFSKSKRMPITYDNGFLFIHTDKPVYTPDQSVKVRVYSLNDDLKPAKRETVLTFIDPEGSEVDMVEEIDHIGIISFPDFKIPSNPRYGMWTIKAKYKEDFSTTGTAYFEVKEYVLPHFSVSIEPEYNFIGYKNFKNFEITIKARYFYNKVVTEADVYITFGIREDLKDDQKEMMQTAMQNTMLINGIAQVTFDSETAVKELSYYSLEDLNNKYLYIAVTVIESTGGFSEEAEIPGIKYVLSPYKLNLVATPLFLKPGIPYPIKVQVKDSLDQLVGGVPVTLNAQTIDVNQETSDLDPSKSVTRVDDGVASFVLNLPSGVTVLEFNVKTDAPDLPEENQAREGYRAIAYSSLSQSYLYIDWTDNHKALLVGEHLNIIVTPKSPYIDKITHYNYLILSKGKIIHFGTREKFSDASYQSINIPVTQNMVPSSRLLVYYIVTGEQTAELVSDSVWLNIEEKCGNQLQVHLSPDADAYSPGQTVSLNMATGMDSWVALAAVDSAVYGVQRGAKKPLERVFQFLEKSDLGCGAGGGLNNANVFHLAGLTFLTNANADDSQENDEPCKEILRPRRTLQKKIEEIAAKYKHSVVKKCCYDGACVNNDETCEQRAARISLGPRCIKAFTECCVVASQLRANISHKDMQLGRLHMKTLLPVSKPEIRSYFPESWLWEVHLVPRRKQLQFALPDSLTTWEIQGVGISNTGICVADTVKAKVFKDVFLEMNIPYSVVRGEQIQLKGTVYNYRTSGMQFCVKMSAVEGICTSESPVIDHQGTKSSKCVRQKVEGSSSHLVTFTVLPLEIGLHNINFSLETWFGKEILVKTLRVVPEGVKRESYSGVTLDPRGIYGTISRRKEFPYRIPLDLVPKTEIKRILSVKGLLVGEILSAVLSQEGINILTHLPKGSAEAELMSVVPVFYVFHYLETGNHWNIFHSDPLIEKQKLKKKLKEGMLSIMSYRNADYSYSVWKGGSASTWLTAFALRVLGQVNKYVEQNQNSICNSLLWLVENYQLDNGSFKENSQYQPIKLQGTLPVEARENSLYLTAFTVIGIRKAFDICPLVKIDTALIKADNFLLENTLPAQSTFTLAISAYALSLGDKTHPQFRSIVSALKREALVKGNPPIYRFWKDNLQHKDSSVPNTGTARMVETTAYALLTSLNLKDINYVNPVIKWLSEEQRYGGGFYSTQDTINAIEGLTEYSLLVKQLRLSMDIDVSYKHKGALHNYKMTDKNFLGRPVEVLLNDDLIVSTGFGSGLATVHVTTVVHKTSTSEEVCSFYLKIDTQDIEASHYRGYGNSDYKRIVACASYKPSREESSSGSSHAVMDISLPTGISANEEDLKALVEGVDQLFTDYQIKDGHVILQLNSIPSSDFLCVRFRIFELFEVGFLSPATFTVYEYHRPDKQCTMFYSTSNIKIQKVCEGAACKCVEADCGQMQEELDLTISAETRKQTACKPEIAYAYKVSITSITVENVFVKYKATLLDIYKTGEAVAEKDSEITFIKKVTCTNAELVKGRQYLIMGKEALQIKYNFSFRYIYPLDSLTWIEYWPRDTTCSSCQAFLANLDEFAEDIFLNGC
UniProt Q06187: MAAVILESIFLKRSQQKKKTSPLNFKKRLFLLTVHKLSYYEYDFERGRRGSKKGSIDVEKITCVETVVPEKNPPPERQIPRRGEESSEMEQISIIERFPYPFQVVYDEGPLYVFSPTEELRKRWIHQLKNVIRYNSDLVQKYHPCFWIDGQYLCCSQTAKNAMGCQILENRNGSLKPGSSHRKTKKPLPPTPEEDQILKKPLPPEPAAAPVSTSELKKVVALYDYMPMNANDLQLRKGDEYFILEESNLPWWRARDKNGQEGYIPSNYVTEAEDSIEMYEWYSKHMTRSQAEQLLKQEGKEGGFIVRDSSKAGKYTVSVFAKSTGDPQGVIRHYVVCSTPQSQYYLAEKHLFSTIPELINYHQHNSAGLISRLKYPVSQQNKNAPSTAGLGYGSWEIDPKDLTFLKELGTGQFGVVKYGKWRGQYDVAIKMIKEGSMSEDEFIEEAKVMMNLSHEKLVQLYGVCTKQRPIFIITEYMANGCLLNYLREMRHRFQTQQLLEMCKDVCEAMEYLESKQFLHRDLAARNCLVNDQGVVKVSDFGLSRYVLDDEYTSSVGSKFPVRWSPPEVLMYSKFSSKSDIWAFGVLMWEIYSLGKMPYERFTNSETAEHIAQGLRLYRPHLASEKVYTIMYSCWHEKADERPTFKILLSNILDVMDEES
UniProt Q9GZU0: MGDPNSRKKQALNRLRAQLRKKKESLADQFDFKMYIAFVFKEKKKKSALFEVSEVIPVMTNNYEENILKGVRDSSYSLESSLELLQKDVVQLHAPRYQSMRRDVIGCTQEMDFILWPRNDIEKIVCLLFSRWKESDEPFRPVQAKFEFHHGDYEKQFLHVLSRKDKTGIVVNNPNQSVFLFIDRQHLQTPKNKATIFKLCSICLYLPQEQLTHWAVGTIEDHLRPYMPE
UniProt Q9H741: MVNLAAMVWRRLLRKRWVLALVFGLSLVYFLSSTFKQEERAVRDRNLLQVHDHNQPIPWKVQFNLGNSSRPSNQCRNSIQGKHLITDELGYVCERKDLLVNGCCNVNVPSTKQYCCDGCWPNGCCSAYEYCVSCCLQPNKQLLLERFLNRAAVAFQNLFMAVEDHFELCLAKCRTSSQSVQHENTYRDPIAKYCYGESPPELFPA
UniProt Q7Z7L8: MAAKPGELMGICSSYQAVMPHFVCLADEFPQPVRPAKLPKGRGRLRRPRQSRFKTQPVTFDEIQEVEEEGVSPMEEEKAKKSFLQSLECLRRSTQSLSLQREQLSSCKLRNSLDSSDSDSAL
UniProt Q9HB07: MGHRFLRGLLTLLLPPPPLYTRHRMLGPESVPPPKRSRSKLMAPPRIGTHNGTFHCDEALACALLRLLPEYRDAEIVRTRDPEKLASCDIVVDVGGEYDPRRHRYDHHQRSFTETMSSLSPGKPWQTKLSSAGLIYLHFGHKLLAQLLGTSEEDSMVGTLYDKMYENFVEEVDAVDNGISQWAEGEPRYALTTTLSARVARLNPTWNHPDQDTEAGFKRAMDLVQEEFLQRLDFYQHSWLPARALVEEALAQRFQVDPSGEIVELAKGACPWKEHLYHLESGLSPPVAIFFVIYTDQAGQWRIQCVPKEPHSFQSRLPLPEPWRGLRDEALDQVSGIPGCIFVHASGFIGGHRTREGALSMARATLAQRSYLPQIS
UniProt Q6UX52: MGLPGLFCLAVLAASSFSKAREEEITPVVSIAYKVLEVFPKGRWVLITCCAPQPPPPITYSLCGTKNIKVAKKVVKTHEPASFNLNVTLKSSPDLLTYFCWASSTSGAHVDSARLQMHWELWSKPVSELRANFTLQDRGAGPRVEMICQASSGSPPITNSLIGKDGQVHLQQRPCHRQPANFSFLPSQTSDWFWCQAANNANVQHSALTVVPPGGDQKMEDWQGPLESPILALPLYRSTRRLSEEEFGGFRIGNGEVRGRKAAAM
UniProt Q05682: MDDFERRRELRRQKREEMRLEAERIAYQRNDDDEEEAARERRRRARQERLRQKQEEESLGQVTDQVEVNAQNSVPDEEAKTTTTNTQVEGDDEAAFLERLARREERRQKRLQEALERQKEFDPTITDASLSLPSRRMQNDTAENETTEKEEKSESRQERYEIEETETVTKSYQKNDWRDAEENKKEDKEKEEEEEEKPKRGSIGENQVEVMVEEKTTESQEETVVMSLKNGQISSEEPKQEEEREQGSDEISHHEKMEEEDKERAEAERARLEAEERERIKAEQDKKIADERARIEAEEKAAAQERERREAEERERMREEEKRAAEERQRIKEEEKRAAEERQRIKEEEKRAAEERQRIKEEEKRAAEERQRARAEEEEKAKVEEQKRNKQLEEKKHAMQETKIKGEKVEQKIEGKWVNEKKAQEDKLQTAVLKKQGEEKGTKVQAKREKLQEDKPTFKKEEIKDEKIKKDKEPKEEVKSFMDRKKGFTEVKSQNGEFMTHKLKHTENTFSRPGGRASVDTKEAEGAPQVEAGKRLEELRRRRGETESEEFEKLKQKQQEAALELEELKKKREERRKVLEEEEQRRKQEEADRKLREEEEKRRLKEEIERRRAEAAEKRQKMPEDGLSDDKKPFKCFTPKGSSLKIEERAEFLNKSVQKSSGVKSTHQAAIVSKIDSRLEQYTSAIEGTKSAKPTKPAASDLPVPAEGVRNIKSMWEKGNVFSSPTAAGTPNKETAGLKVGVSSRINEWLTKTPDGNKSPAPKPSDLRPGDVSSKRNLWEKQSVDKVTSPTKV
UniProt Q0VDD7: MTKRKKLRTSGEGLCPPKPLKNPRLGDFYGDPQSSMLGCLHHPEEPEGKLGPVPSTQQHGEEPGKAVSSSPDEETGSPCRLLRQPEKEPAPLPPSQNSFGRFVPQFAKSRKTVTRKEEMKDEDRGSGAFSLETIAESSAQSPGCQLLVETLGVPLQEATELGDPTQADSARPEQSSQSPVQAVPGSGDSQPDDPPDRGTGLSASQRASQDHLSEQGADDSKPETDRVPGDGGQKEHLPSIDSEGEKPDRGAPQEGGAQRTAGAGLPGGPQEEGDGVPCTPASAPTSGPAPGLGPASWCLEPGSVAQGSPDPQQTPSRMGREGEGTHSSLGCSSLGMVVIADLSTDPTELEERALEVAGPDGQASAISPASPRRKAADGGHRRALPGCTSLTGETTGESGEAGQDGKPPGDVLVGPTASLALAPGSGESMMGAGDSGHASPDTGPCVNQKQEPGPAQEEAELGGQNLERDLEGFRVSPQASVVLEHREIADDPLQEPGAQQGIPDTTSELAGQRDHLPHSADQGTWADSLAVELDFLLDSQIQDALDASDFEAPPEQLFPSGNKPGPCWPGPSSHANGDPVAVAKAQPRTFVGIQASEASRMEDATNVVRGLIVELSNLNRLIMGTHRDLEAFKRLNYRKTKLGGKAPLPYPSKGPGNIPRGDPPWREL
UniProt Q8N5S9: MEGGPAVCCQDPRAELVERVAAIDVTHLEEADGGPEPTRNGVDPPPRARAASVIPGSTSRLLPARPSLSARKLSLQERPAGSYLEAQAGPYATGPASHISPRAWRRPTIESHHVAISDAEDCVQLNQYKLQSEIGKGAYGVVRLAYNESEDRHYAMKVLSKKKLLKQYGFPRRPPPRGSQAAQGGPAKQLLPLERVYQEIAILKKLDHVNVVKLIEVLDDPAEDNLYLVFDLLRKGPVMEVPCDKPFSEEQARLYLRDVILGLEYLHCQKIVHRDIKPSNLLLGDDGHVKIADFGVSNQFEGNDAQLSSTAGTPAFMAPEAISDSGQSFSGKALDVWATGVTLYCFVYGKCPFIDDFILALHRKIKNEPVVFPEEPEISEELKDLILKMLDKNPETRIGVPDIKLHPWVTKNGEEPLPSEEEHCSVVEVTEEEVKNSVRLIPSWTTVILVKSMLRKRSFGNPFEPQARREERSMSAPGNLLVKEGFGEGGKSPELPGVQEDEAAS
UniProt Q9BSF8: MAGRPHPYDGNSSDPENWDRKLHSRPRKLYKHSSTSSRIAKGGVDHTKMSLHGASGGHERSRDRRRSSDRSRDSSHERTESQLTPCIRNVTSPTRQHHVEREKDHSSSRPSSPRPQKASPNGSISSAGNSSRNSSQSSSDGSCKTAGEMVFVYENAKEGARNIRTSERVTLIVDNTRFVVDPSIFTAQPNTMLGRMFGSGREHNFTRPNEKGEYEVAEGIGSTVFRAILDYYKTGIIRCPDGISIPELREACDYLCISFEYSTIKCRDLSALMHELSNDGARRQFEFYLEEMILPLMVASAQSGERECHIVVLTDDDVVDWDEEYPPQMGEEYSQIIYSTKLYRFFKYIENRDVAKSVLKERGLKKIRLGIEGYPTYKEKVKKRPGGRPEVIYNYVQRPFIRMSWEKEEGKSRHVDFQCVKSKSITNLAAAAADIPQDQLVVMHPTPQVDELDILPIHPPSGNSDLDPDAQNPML

compound: CCn1cc(-c2ccnc3[nH]c(-c4cccc(CN(C)C)c4)cc23)c(-c2ccc(NC(=O)N(C)C)cc2)n1; experiment: log2 fold change, soluble protein after heating vs DMSO (PISA); higher = thermal stabilisation; K562 cells, 10 uM, 30 min; active = over 0.2 and 3.5 SD of the protein, either way, in both replicates (recomputed)
Summary of the method: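 Soluble protein was defined as the supernatant after 21,000xg for 90 min. It came from K562 cells at 2×10^6 cells/mL given 10 μM compound for 30 min, heated in aliquots for 3 min across 48°C-58°C, pooled, and extracted in PBS with 0.5% NP-40 at 4°C, and was quantified by TMTpro 16plex LC-MS/MS with equalised channel sums. Thermal stability against control samples, from duplicates, is reported as log2 fold change.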

log2 fold change, inactive:
C1orf159 isoform 4 (UniProt Q96HA4) -0.219, C9orf16 (UniProt Q9BUW7) 0.128, C5 (UniProt P01031) -0.124, BTK isoform 2 (UniProt Q06187) 0.146, C6orf62 (UniProt Q9GZU0) 0.011, C12orf49 (UniProt Q9H741) 0.323, C11orf96 (UniProt Q7Z7L8) 0.065, CA13 (UniProt Q8N1Q1) 0.078, C12orf10 (UniProt Q9HB07) -0.082, C17orf99 (UniProt Q6UX52) -0.192, CALD1 (UniProt Q05682) -0.325, C19orf57 (UniProt Q0VDD7) 0.192, CAMKK1 isoform 2 (UniProt Q8N5S9) -0.381, BTBD10 isoform 2 (UniProt Q9BSF8) 0.148
